Test results taken from patent US10787448B2, “Indolizino [3,2-C] quinoline-based fluorescent probe” (SEOUL NATIONAL UNIVERSITY R & DB FOUNDATION, priority 2015, dated 2020).
At least one compound was matched to its structure with a doubt left.

Chains of the proteins cited; added tags and fusions are not shown. Lines headed by an entry give the natural chain unless they say otherwise; changes in a name come on top.
UniProt O43924: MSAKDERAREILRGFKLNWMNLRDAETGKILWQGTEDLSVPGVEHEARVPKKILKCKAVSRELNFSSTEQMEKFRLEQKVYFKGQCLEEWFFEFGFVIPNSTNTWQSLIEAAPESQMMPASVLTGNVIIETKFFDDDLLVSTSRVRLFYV

Tests used:
PDEδ = molecular target: T1, PDEδ (Homo sapiens, UniProt O43924); experiment: Titration using fluorescence polarization; assay type: binding; conditions: Table 9
T1 construct: made in house; host or cells: E. coli

[1] = Analysis of optical characteristics (absorption, fluorescence emission, quantum yield) in solvents; assay type: physicochemical
Experimental: Fluorescence emission spectra were obtained at 20° C. using a JASCO FP-6500 spectrofluorometer, a 10 mM stock solution prepared by dissolving an indolizino[3,2-c]quinoline compound in DMSO was diluted in a solvent. […] Absorption spectra were recorded at room temperature using a Perkin Elmer Lamda 20 UV/VIS spectrometer. […]
Further, the compounds (excluding Entry #51-57, etc.) of Formula 1 were subjected to spectrum analyses in various solvents, and the results are shown in Tables 6 and 7, and FIGS. 5C and 5D.

In the case of `c1coc(-c2nc3ccccc3c3cc4ccccn4c23)c1` [compound 42], the “kmax em(nm)” value (PDEδ) is reported as 526 nm, the “λabs(nm)” value (PDEδ) is reported as 440 nm and the “quantum yield (Φ)” value ([1]; DW, standard Rhodamine 6G) is reported as 0.010. The “quantum yield (Φ)” value ([1]; EtOH, standard Coumarin 153) was 0.201.
